Measurements taken from patent publication USRE35801E, “Prophylactic and therapeutic composition for circulatory disorders and method of treatment” (priority 1985, dated 1998).
The name of at least one read-out is uncertain.

Test system: cerebral ischemia recirculation model
Test: Protective action in cerebral ischemia recirculation model
Type: in vivo, Wistar-strain male rat
Design: key: The case when restoration of electroencephalogram is judged as +; case when not recognized as -
Settings: 3 mg/kg, individual animal
Experimental: (3) Protective action in cerebral ischemia recirculation model
A Wistar-strain male rat weighing about 400 g was administered intramascularly with 0.6 mg of di-tubocurarine to be immobilized and, after a trachea cannulation, the head portion was fixed under artificial respiration on a stereotaxic device. The head skin was cut open, cranial bone was bored, and then bipolar electrode for lead-out of electroencephalogram were placed on the surface of the subdural left frontal cerebral cortex. After the electrode was fixed with the cranial bone by use of dental cement, the animal was held on its back. Next, a cannula for measurement of systemic pressure was placed within the left femoral artery, and a cannula for additional administration of d-tubocurarine within the left femoral vein, respectively. The heart rate was measured and recorded by driving a heart rate meter with the artery wave.
After blood pressure, heart rate and various parameters of electroencephalogram were stabilized, 10 mg/kg of the active ingredient of the present invention prepared in a suspension so as to give 1 ml/kg in 1% tragacanth gum solution was administered directly into duodenum […]. To the control group, only the 1% tragacanth gum solution of the same volume was administered similarly. […]

CC1=NN(c2ccccc2)C(=O)C1 [Compound 1, 3-methyl-1-phenyl-2-pyrazolin-5-one]
Presence of electroencephalogram restoration: + and -
